Patent US6492124B1, “Trance activated signal transduction pathways in osteoclasts” (The Rockefeller University, priority 1999, dated 2002)
At least one compound was matched to its structure with a doubt left.

Assays:
Format in all cases: cell-based, mouse
[1] = tested on: NF-κB; assay: NF-κB activation measured by IκB-α phosphorylation/degradation in osteoclasts and dendritic cells (Western blot); conditions: osteoclasts and dendritic cells (FIGS. 2A and 2B), inhibitor 10 μM, TRANCE 1 μg/ml
Protocol: (§1) FIG. 1. […] (A) Mature bone marrow-derived osteoclasts were stimulated for the indicated times with recombinant hCD8-TRANCE (TRANCE; 1 μg/ml). Levels of phosphorylated forms of p44/p42 ERK (p44 ERK^P and p42 ERK^P), IκBα (IκB-α^P) and PKB (PKB^P) in whole cell extracts were determined using phospho-peptide-specific antibodies as indicated in the figure. […] (B) as in (A) except the use of mature bone marrow-derived dendritic cells instead of osteoclasts.
(§2) FIG. 2. […] (A) Osteoclasts were serum starved and then pretreated for 90 min with LY294002 (10 μM), Herbimycin A (Herb. A; 10 μM), and PP1 (10 μM) inhibitors which are specific for PI3-kinase, PTKs, and Src-family kinases, respectively, were stimulated for indicated times with TRANCE (1 μg/ml). Levels of phosphorylated p44/p42 ERK, PKB, and IκB-α were determined as described in FIG. 1. Cells pretreated with vehicle (DMSO) were used as a negative control. (B) as in (A) except the use of mature bone marrow-derived dendritic cells.
(§3) Primary cells and cell lines. […] In brief, bone marrow cells from tibiae and femur of 4-6 week old mice (C57BL/6, Jackson Laboratories) were cultured overnight in media (α-MEM, 10% FCS) in the presence of CSF-1 (5 ng/ml). […] For experiments described in this study, only adherent cells were used after extensive washing. […]

[2] = tested on: mature osteoclasts; assay: Osteoclast survival assay (TRAP solution assay); conditions: 24 hr, TRANCE 5 μg/ml, LY294002 200 nM and 800 nM, dose-dependent
[3] = tested on: PKB; assay: PKB activation in dendritic cells (phospho-PKB Western blot); conditions: dendritic cells pretreated 90 min with inhibitor 10 μM, then TRANCE 1 μg/ml
Protocol: FIG. 1. TRANCE activates p44/42 ERK, NF-κB and PKB in osteoclasts and dendritic cells. (A) Mature bone marrow-derived osteoclasts were stimulated for the indicated times with recombinant hCD8-TRANCE (TRANCE; 1 μg/ml). Levels of phosphorylated forms of p44/p42 ERK (p44 ERK^P and p42 ERK^P), IκBα (IκB-α^P) and PKB (PKB^P) in whole cell extracts were determined using phospho-peptide-specific antibodies as indicated in the figure. The membranes were stripped and incubated with antibodies against the p44/p42 ERK, IκB-α, and PKB as indicated to confirm that similar amounts of whole cell extracts were analyzed. Note the decrease of IκB-α after 10 min of treatment due to its degradation. (B) as in (A) except the use of mature bone marrow-derived dendritic cells instead of osteoclasts.
FIG. 2. TRANCE-induced PKB activation in osteoclasts and dendritic cells is blocked by inhibitors of PI3-kinase, tyrosine kinases and Src family kinases. […] Levels of phosphorylated p44/p42 ERK, PKB, and IκB-α were determined as described in FIG. 1. […]
FIG. 6. […] The activation of PKB was determined in whole cell extracts using a phospho-PKB-specific antibody as described in FIG. 1. […] The activation of PKB was determined as described in FIG. 1. […]

[4] = tested on: PKB; assay: PKB activation in osteoclasts (phospho-PKB Western blot); conditions: osteoclasts pretreated 90 min with inhibitor 10 μM, then TRANCE 1 μg/ml
Protocol: as §1, §2, §3

O=c1cc(N2CCOCC2)oc2c(-c3ccccc3)cccc12 [LY294002]
NF-κB activation as measured by IκB-α degradation [1]: neither LY294002, herbimycin A, nor PP1 significantly affected | cell survival promoted by TRANCE [2]: significantly reduced | TRANCE-induced PKB activation (phosphorylated form of PKB) [3]: inhibited | TRANCE-induced PKB activation (phosphorylated form of PKB) [4]: inhibited
